{"source": "PubChem BioAssay AID652243 – Drosophila RNAi Screening Center – 2013", "assay": "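Fly regulators of androgen-dependent reporter output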 (primary screen)", "system": "Drosophila S2R+ cells", "knock-down reagent": "long dsRNA against Drosophila genes", "time to read-out": "72 h (48 h, then 24 h hormone)", "conditions": "synthetic androgen R1881 at 10 nM for 24 h", "read-out": "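Firefly light from an androgen-responsive reporter and Renilla control light per well, raw and unnormalised, for each of two replicates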", "direction": "firefly reporter light: higher = more light from androgen-responsive reporter; Renilla control light: higher = more constitutive control signal (cell number, transfection)", "call rule": "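Hit when the log firefly-to-Renilla ratio dropped or increased by a fixed fold versus the mean of GFP or LacZ controls across duplicate plates; lowering cut given as 1.5 and as 3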", "calls": "active = hit: reporter lowered or raised; inactive = no hit", "note": "The deposit covers about 24,000 reagents; this is a random part of those that have a named target and a result. Over the whole deposit, 246 (1%) were called active. 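Plates not normalised; calls are printed but the firefly/Renilla ratio behind them is not deposited; fold cut for lowering reported inconsistently.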 Raw values vary from plate to plate and are shown uncorrected. The numbers tell different reagents against one gene apart. No sequences are given here. Not stated in the record: the amount of reagent."}
{"Gene":"mtm (myotubularin)","reagent":1,"firefly reporter light, replicate 1":3.92e5,"firefly reporter light, replicate 2":5.04e5,"Renilla control light, replicate 1":9.37e5,"Renilla control light, replicate 2":1.25e6,"Outcome":"inactive"}
{"Gene":"mtm (myotubularin)","reagent":2,"Outcome":"inactive"}
{"Gene":"mtm (myotubularin)","reagent":3,"Outcome":"inactive"}
{"Gene":"CG14070","reagent":1,"firefly reporter light, replicate 1":2.86e5,"firefly reporter light, replicate 2":2.77e5,"Renilla control light, replicate 1":1.99e6,"Renilla control light, replicate 2":2.03e6,"Outcome":"inactive"}
{"Gene":"Cad96Ca (Cadherin 96Ca)","reagent":1,"firefly reporter light, replicate 1":1.11e5,"firefly reporter light, replicate 2":1.13e5,"Renilla control light, replicate 1":1.90e6,"Renilla control light, replicate 2":1.85e6,"Outcome":"inactive"}
{"Gene":"Cad96Ca (Cadherin 96Ca)","reagent":2,"firefly reporter light, replicate 1":2.08e5,"firefly reporter light, replicate 2":2.51e5,"Renilla control light, replicate 1":2.02e6,"Renilla control light, replicate 2":2.21e6,"Outcome":"inactive"}
{"Gene":"Cad96Ca (Cadherin 96Ca)","reagent":3,"Outcome":"inactive"}
{"Gene":"Cad96Ca (Cadherin 96Ca)","reagent":4,"Outcome":"inactive"}
{"Gene":"CtsK2 (Cathepsin K2)","reagent":1,"firefly reporter light, replicate 1":8.84e5,"firefly reporter light, replicate 2":1.11e6,"Renilla control light, replicate 1":1.22e6,"Renilla control light, replicate 2":1.08e6,"Outcome":"inactive"}
{"Gene":"CtsK2 (Cathepsin K2)","reagent":2,"firefly reporter light, replicate 1":5.56e5,"firefly reporter light, replicate 2":4.56e5,"Renilla control light, replicate 1":9.97e5,"Renilla control light, replicate 2":9.46e5,"Outcome":"inactive"}
{"Gene":"omd (oocyte maintenance defects)","reagent":1,"firefly reporter light, replicate 1":95296,"firefly reporter light, replicate 2":1.01e5,"Renilla control light, replicate 1":5.33e5,"Renilla control light, replicate 2":5.50e5,"Outcome":"inactive"}
{"Gene":"omd (oocyte maintenance defects)","reagent":2,"firefly reporter light, replicate 1":1.09e6,"firefly reporter light, replicate 2":1.02e6,"Renilla control light, replicate 1":1.47e6,"Renilla control light, replicate 2":1.47e6,"Outcome":"inactive"}
{"Gene":"naz (nazgul)","reagent":1,"firefly reporter light, replicate 1":1.72e5,"firefly reporter light, replicate 2":1.79e5,"Renilla control light, replicate 1":2.18e6,"Renilla control light, replicate 2":2.43e6,"Outcome":"inactive"}
{"Gene":"naz (nazgul)","reagent":2,"firefly reporter light, replicate 1":1.08e5,"firefly reporter light, replicate 2":93691,"Renilla control light, replicate 1":1.80e6,"Renilla control light, replicate 2":1.43e6,"Outcome":"inactive"}

2 of these entries, reformatted.
| Gene | reagent | firefly reporter light, replicate 1 | firefly reporter light, replicate 2 | Renilla control light, replicate 1 | Renilla control light, replicate 2 | Outcome |
| --- | --- | --- | --- | --- | --- | --- |
| omd (oocyte maintenance defects) | 2 | 1.09e6 | 1.02e6 | 1.47e6 | 1.47e6 | inactive |
| naz (nazgul) | 1 | 1.72e5 | 1.79e5 | 2.18e6 | 2.43e6 | inactive |
